Screen size: about 330,000 compounds; about 7,700 (2.3%) were called active. Inconclusive results, whose numbers are uncertain, are shown with a selection of clear calls. Calls follow the shape of the dose curve; as a rule, active = well fitted inhibition curve with a large enough effect; inconclusive = small, poorly fitted or top-dose-only effect, or effect the other way; inactive = flat fitted curve, though single readings scatter. Where the call is inconclusive, the potency comes from a doubtful curve fit.
Experiment: qHTS screen for small molecules that inhibit ELG1-dependent DNA repair in human embryonic kidney (HEK293T) cells expressing luciferase-tagged ELG1; also: nearly all actives have a fitted effect of over 55% in size
Conditions: HEK293T ELG1-luciferase reporter, luminescence, 16 h, DNA damage induced by 5-fluorouridine; activity change, negative = inhibition: at 46.1 µM (top of the series)
Procedure, shortened: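 Cells (2,000 per well) received 5-fluorouridine plus test compound or DMSO and were incubated 16 hr at 37 °C, 5% CO2. Luciferase activity was read by luminescence 30 min after ONE-Glo addition; signal suppression marked inhibition of damage-induced ELG1 function.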
For Cc1ccccc1S(=O)(=O)Nc1nc2ccccc2nc1Cl, the Potency was inconclusive: 18.3 µM [inhibitor, single point]. In the case of COC(=O)c1cc(CSc2nc3ccc(C)cc3[nH]2)oc1C, the Potency is reported as inconclusive: 18.4 µM [inhibitor, single point]. In the case of Cc1ccc2c(c1)N(C)/C(=C/c1cccc[n+]1C)S2, the Potency is reported as inconclusive: 1.16 µM [inhibitor, full curve, poor fit]. In the case of Cc1cc(NC(=O)CSc2nnc(CNC(=O)c3cccc(C(F)(F)F)c3)o2)no1, the “activity change, negative = inhibition” value is reported as inactive: 22.4%. For COc1ccc(CN(C(=O)c2ccco2)c2ccc(Br)cc2)cc1OC, the Potency was inconclusive: 23.1 µM [inhibitor, single point]. For O=C(/C=C/Sc1ccccc1)c1ccc(Cl)cc1, the “activity change, negative = inhibition” value was inactive: -11.5%. In the case of O=C(NCc1ccncc1)c1cccc(S(=O)(=O)N2CCc3ccccc32)c1, the Potency is reported as inconclusive: 14.6 µM [inhibitor, partial curve]. With Cn1c(SCc2c(F)cccc2Cl)nc2c(c1=O)SCC2 the “activity change, negative = inhibition” value was inactive: -28.7%. With N#C/C(=C(/O)c1ccc([N+](=O)[O-])cc1)c1nnc2n1CCCCC2 the “activity change, negative = inhibition” value was inactive: -18.3%. With Cc1noc(C)c1COC(=O)c1ccc(S(=O)(=O)NCc2ccco2)cc1 the Potency was inconclusive: 25.9 µM [inhibitor, single point]. For CCOC(=O)NCc1ccc(S(=O)(=O)Nc2ccc(C)cc2)cc1, the Potency was inconclusive: 16.4 µM [inhibitor, partial curve, poor fit]. In the case of C#CCN1C(=O)S/C(=C/C=C/c2ccc(N(C)C)cc2)C1=O, the Potency is reported as inconclusive: 3.66 µM [activator, full curve]. With CCSc1ccccc1C(=O)N1CCN(Cc2ccc3c(c2)OCO3)CC1 the “activity change, negative = inhibition” value was inactive: -5.95%. With Cc1ccc(S(=O)(=O)n2c(N)nc3ccccc32)cc1 the “activity change, negative = inhibition” value was inactive: 7.04%. In the case of COc1cc(/C=N/N=C2/NC(=O)C(CC(=O)O)S2)ccc1OCc1ccc(Cl)cc1 (stereo not given), the Potency is reported as inconclusive: 14.6 µM [activator, partial curve]. For O=C(N/N=C/C(Cl)=C/c1ccccc1)c1ccc2c(c1)OCO2, the “activity change, negative = inhibition” value was inactive: 23.6%. For CC(=O)N(/N=C1\Sc2ccccc2C1=O)c1ccc(C)cc1C, the Potency was inconclusive: 1.03 µM [activator, partial curve]. With COc1ccccc1NS(=O)(=O)c1ccc(C(=O)NCC(c2ccccc2OC)N(C)C)cc1 (stereo not given) the “activity change, negative = inhibition” value was inactive: 11.9%. With COc1ccccc1-n1c(N)c(C(=O)NCC2CCCO2)c2nc3ccccc3nc21 (stereo not given) the Potency was inconclusive: 18.4 µM [inhibitor, partial curve]. In the case of O=C(NCCCNC1CCCCC1)c1ccc(/C=N/O)nc1, the Potency is reported as inconclusive: 35.5 µM [activator, single point]. With CCC(CC)C(=O)N1N=C(c2ccc(NS(C)(=O)=O)cc2)CC1c1ccccc1 (stereo not given) the Potency was inconclusive: 23.1 µM [inhibitor, partial curve, poor fit]. In the case of CC(=O)c1ccc(NC(=O)c2noc3c2CCC3)cc1, the Potency is reported as inconclusive: 0.517 µM [activator, full curve]. In the case of Cc1cccc(-n2nnc(C(=O)NCc3ccccc3)c2N)c1, the “activity change, negative = inhibition” value is reported as inactive: -9.46%. With CC(CC(=O)Nc1cccnc1)c1ccccc1 (stereo not given) the “activity change, negative = inhibition” value was inactive: -2.18%. For C/C(=N\NC(=O)COc1ccccc1-c1ccccc1)c1cccnc1, the Potency was inconclusive: 32.6 µM [inhibitor, partial curve, poor fit]. With COc1ccccc1-c1c(C)c(C)nc(N)c1C#N the “activity change, negative = inhibition” value was inactive: -3.42%. In the case of CCC1(c2ccc(F)cc2)NC(=O)N(CC(=O)NC2CC2)C1=O (stereo not given), the Potency is reported as inconclusive: 3.26 µM [activator, partial curve, poor fit]. With Cn1c(SCC(=O)Nc2ccc(C(N)=O)cc2)nc2c(c1=O)SCC2 the Potency was inconclusive: 14.6 µM [activator, partial curve]. With Cc1nc2cc(-c3ccccc3)[nH]n2c(=O)c1C the Potency was inconclusive: 10.3 µM [activator, partial curve]. With c1ccc(-n2nnnc2SCc2cn3ccccc3n2)cc1 the “activity change, negative = inhibition” value was inactive: 4.2%. With C=CCc1ccc(OCCOCCNCCOC)c(OC)c1 the “activity change, negative = inhibition” value was inactive: -0.867%. For O=C(N/N=C/c1ccc(COc2ccc(Br)cc2)o1)c1ccc2c(c1)OCO2, the Potency was inconclusive: 18.3 µM [inhibitor, partial curve]. In the case of O=S(=O)(Nc1nc2ccccc2nc1N1CCc2ccccc2C1)c1ccc(Cl)cc1, the Potency is reported as inconclusive: 29.1 µM [inhibitor, single point]. For CN(C)C=NC(=O)/C(C#N)=C/c1ccccc1, the “activity change, negative = inhibition” value was inactive: 5.85%. For CCNC(=S)N1CCN(C(=O)C(Cc2ccccc2)NC(C)=O)CC1 (stereo not given), the Potency was inconclusive: 3.66 µM [activator, single point]. In the case of CCCOc1ccccc1/C=C1\SC(N)=NC1=O, the Potency is reported as inconclusive: 10 µM [inhibitor, partial curve, poor fit]. For Cc1ccc(-c2n[nH]c(=O)c3ccccc23)cc1S(=O)(=O)Nc1ccc(F)cc1, the Potency was inconclusive: 29.1 µM [inhibitor, single point]. For COc1ccc([N+](=O)[O-])cc1/C=N/Nc1nc(N2CCCCC2)nc(N2CCCCC2)n1, the Potency was inconclusive: 29.1 µM [inhibitor, single point]. With C=CCn1c(O)c(/C=C2\C=NN=C2c2ccccc2)sc1=S the “activity change, negative = inhibition” value was inactive: -30.4%. For Cc1ccc2nc(NNC(=O)c3ccc(S(=O)(=O)N4CCc5ccccc5C4)cc3)sc2c1, the Potency was inconclusive: 5.17 µM [inhibitor, single point]. With COc1ccccc1NC1=C(N2CCCCC2)C(=O)c2ccccc2C1=O the Potency was active: 1.84 µM. With CCN(CC)C(=O)c1sc(NC(=O)c2ccc3c(c2)OCO3)c(C#N)c1C the Potency was inconclusive: 16.4 µM [inhibitor, partial curve, poor fit]. With CCc1c(C)[nH]c2c(C)cccc2c1=O the Potency was inconclusive: 32.6 µM [activator, partial curve, poor fit]. For CCOC(=O)C1=C(COC(=O)c2ccc3ccccc3c2O)NC(=O)NC1C (stereo not given), the Potency was inconclusive: 29.1 µM [inhibitor, single point]. In the case of COc1ccc(Cl)cc1NC(=O)CN(C)CC(=O)N(CC(C)C)c1c(N)n(CC(C)C)c(=O)[nH]c1=O, the “activity change, negative = inhibition” value is reported as inactive: -18.7%. With N#Cc1ccccc1NC(=O)COc1ccccc1C(=O)Nc1ccccc1 the Potency was active: 20.6 µM. With COc1ccc(C)cc1N(C(=O)c1cccc(F)c1)c1nc2ccccc2s1 the Potency was inconclusive: 32.6 µM [inhibitor, partial curve, poor fit]. For CC1CCN(CCCNS(=O)(=O)c2cc(Br)cc3c2N(C(=O)C2CC2)CC3)CC1, the Potency was inconclusive: 29.1 µM [activator, partial curve, poor fit]. With Cc1cc(C(=O)COC(=O)C2=COCCO2)c(C)n1-c1cccc(F)c1 the Potency was inconclusive: 1.83 µM [activator, full curve]. With COc1ccc(CNc2nc3c(c(=O)n(Cc4ccc(Br)cc4)c(=O)n3C)n2C)cc1 the Potency was inconclusive: 10.3 µM [inhibitor, partial curve]. With CCn1c(SCC(=O)Nc2nccs2)nnc1-c1ccccc1 the “activity change, negative = inhibition” value was inactive: 12.3%. In the case of NS(=O)(=O)c1cccc(NC(=O)COC(=O)c2ccccc2SCC(=O)N2CCCC2)c1, the “activity change, negative = inhibition” value is reported as inactive: -18.1%. For CCc1sc(C(=O)N2CCN(CC(=O)Nc3cccc(F)c3)CC2)cc1C, the Potency was inconclusive: 2.06 µM [activator, partial curve, poor fit]. In the case of CCOC(=O)CSc1nc2cc(C)ccc2cc1C#N, the Potency is reported as inconclusive: 1.3 µM [activator, full curve]. For Cc1ccc(C2CN=NC23CCc2ccccc2C3=O)cc1 (stereo not given), the Potency was inconclusive: 23.1 µM [activator, single point]. For COc1ccc2nc(N3CCCC(C(=O)NCCCN4C(C)CCCC4C)C3)sc2c1 (stereo not given), the Potency was inconclusive: 14.6 µM [activator, single point]. In the case of Cn1c(SCC(=O)c2cc(Cl)c(Cl)s2)nnc1-c1ccco1, the “activity change, negative = inhibition” value is reported as inactive: -2.23%. With COc1ccc(Nc2cc(C)c3c(O)cccc3n2)cc1 the Potency was inconclusive: 1.64 µM [activator, partial curve, poor fit]. In the case of CCOC(=O)c1sc(NC(=O)C(C)(C)C)cc1C, the Potency is reported as inconclusive: 16.4 µM [activator, partial curve]. In the case of C=CCN(c1ccccc1)S(=O)(=O)c1cccc(C(=O)N2CCN(c3ncccn3)CC2)c1, the Potency is reported as inconclusive: 18.3 µM [inhibitor, single point]. In the case of COc1cccc(CNCCO)c1OCc1ccccc1Cl, the “activity change, negative = inhibition” value is reported as inactive: -2.32%. In the case of COc1cc(S(=O)(=O)N2CCOCC2)ccc1NC(=O)COC(=O)/C=C/c1cc(OC)c(OC)c(OC)c1, the “activity change, negative = inhibition” value is reported as inactive: 0.183%. In the case of COc1ccccc1NC(=O)N1CCc2[nH]c3ccc(F)cc3c2C1, the Potency is reported as inconclusive: 35.5 µM [inhibitor, single point]. With O=C(Nc1ccc(F)cc1)C(c1ccccc1)N1CCN(S(=O)(=O)c2c(F)cccc2F)CC1 (stereo not given) the “activity change, negative = inhibition” value was inactive: -13.2%. For NC(=O)CC(NC(=O)Cc1cccc2ccccc12)c1ccc(NCCCN2CCCC2=O)c([N+](=O)[O-])c1 (stereo not given), the Potency was inconclusive: 0.58 µM [inhibitor, single point]. With O/N=C\c1ccc(-c2ccccc2)o1 the Potency was inconclusive: 29.1 µM [activator, single point]. In the case of O=C(COC(=O)C1(c2ccccc2)CC1)N1CCN(c2ccc(F)cc2)CC1, the Potency is reported as inconclusive: 16.4 µM [inhibitor, single point]. With CC1=C(Sc2nc3ccccc3[nH]2)C(=O)NC(C)(C)C1 the Potency was inconclusive: 13 µM [activator, partial curve, poor fit]. With Cc1ccc2c(c1)N(Cc1cccc(C#N)c1)C=NS2(=O)=O the “activity change, negative = inhibition” value was inactive: -10.6%. With N=c1n(CCN2CCOCC2)c2ccccc2n1CC(=O)c1ccc(Cl)c(Cl)c1 the Potency was inconclusive: 16.4 µM [inhibitor, single point].

From PubChem BioAssay AID504467 (National Center for Advancing Translational Sciences (NCATS), 2011)
% is scaled to controls: 0 for no effect and ±100 for the full control effect; potency is read from the fitted curve at half-maximal effect.
